# Reference: US11826357B2, “Bacterial efflux pump inhibitors” (RUTGERS, THE STATE UNIVERSITY OF NEW JERSEY, priority 2017, dated 2023)
# Tested on: Pseudomonas aeruginosa ATCC 27853
# Test: Standard bacterial EPI assay: MIC of levofloxacin in the absence and presence of the EPI
# Format: cell-based
# Conditions: ATCC27853, P. aeruginosa ATCC 27853, no EPI
# Method: MIC assays were conducted in accordance with Clinical and Laboratory Standards Institute (CLSI) guidelines for broth microdilution. A 96-well plate containing cation-adjusted Mueller-Hinton (CAMH broth with 2-fold serial dilution of compounds was inoculated with log-phase bacterial at 5×10^5 CFU/mL. The final volume in each well was 100 μL. Each compound was tested in duplicate. The microtiter plates were incubated in an aerobic environment for 18 hours at 37° C. Then the bacterial growth was tested by reading the plate with a VersaMax plate reader (Molecular Devices, Inc.) at 600 nm. The MIC was defined as the lowest compound concentration that inhibited 90% of bacteria growth.
# The EPI assay for the purposes of these studies represents a MIC assay in which the MIC of the antibiotic against the bacteria is tested in the presence of an experimental efflux pump inhibitor (EPI). […] Using serial dilutions of the EPI, its enhancement of antibiotic activity was then evaluated. […]
# The impact of Example 2 on the MIC values of two test antibiotics (levofloxacin and cefepime) against P. aeruginosa ATCC 27853 were evaluated using our standard EPI assay. […]
# In our standard EPI assay, the MIC of the test antibiotic is determined in the absence and presence of sub-inhibitory concentrations of the EPI. […]
compound,measurement,value
"C[C@H]1COc2c(N3CCN(C)CC3)c(F)cc3c(=O)c(C(=O)O)cn1c23 [levofloxacin, reference compound]",MIC,1 µg/mL
